Laboratory results reported in patent publication US20090202565A1, “TORC POLYNUCLEOTIDES AND POLYPEPTIDES AND METHOD OF USE” (priority 2004, published 2009).
For at least one compound, name, drawing or mass did not settle the structure.

What was measured:
TORC1-eGFP = test: TORC1 (FLAG-TORC1 / TORC1-eGFP) nuclear translocation in HeLa cells, fluorescence microscopy; format: cell-based, human; settings: 1 uM ionomycin; 1 hour preexposure to 6.4 nM FK506, 5 uM CsA or 2 uM rapamycin
Description: Generation of stable TORC-eGFP cell lines. HeLa cells are transfected with pCMV-TORC1-eGFP and stable integrants are selected with 700 ug/ml geneticin. A single colony that expressed TORC1-eGFP is isolated and expanded (HhTORC1eGFP cells). […]
HeLa cells are transfected with FLAG-TORC1 (FIG. 1, panels A and B) or TORC1-eGFP (panels C and D). Cells are either untreated (panels A and C) or treated with 10 nM leptomycin-B (LMB), a fungal inhibitor of CRM1 mediated nuclear export of proteins, for 90 min (panels B and D). FLAG-tagged protein is visualized by immunofluorescence while eGFP-tagged proteins are directly visualized by fluorescence. […] Since a variety of signal transduction proteins are regulated by either nuclear export or stimulus induced import, the localization of TORC1 is examined after treatment with LMB. […]

TORC3-eGFP = TORC3-eGFP nuclear translocation in HEK293 cells, fluorescence microscopy; format: cell-based, human; settings: stable HEK293; 25 uM forskolin alone, 1 hour
Description: (§1) HEK293 cells are transfected with either pCMV-TORC1-eGFP, pCMV-TORC2-eGFP or pCMV-TORC3-eGFP linearized with AseT restriction endonuclease and stable integrants are selected with 700 ug/ml geneticin generating a population of cells that express TORC-eGFP. These are referred to as 293hTORC1, 293hTORC2 or 293hTORC3 cells, respectively. All of the stable TORC-eGFP cell-lines are subjected to fluorescence activated cell sorting to remove non-fluorescing cells.
(§2) The localization of human TORC2 and TORC3 is also examined. Both HeLa cells and HEK293 cells are transfected with either pCMV-TORC2-eGFP or pCMV-TORC3-eGFP.
(§3) In order to assess this possibility, HeLa cells stably expressing TORC1-eGFP are exposed to either no treatment (FIG. 5, panel A), 50 uM forskolin and 100 uM IBMX (panel B), or 1 mM db-cAMP (panel C) for 2 hours. […] Similarly, HEK293 cells stably expressing TORC2-eGFP (FIG. 5, panels D and E) or TORC3-eGFP (panels F and G) are either untreated (panels D and F) or treated with 25 uM forskolin for 1 hour (panels E and G).

TORC2-eGFP = TORC2-eGFP nuclear translocation in HEK293 cells, fluorescence microscopy; format: cell-based, human; settings: stable HEK293; 25 uM forskolin alone, 1 hour
Description: as §1, §2, §3

endogenous TORC2 = test: Endogenous TORC2 localization in wild type HEK293 cells by immunohistochemical staining; format: cell-based; settings: 50 uM forskolin, 90 min

Row | Structure (SMILES) | block of ionomycin-induced TORC1-eGFP translocation (TORC1-eGFP) | translocation of TORC3-eGFP (TORC3-eGFP) | translocation of TORC2-eGFP (TORC2-eGFP) | anti-TORC2 immunohistochemical staining pattern (endogenous TORC2)
1 | C=CC[C@@H]1/C=C(\C)C[C@H](C)C[C@H](OC)[C@H]2O[C@@](O)(C(=O)C(=O)N3CCCC[C@H]3C(=O)O[C@H](/C(C)=C/[C@@H]3CC[C@@H](O)[C@H](OC)C3)[C@H](C)[C@@H](O)CC1=O)[C@H](C)C[C@@H]2OC [FK506] | completely blocked | – | – | –
2 | C=C[C@@]1(C)CC(=O)[C@]2(O)[C@@]3(C)[C@@H](O)CCC(C)(C)[C@@H]3[C@H](O)[C@H](OC(C)=O)[C@@]2(C)O1 [forskolin] | – | translocated to the nucleus | translocated to the nucleus | predominantly nuclear immunohistochemical staining
